Source: PubChem BioAssay AID256 (DTP/NCI, 2004)
The list shows only some results of the screen, not a fair sample: it gathers tests that were run many times, whatever their T/C, doses with no T/C, and many T/C values between a quarter and a half above the control. Other doses and runs of a compound stand elsewhere. T/C is the treated group as % of the vehicle group. Some doses have a count of surviving animals in place of a T/C: the source holds a T/C of zero for them, seemingly a mark for toxic or unscored doses. Some survivor counts are full or nearly so, which does not show that the dose was tolerated: survival well below the control is almost never listed, so the zero probably covers shortened survival too. Survivors were counted at the toxicity check, usually on the fifth day, unless a day is given; later deaths do not show. Schedule codes are those of the source, taken here to give the interval after Q, in days (D) or hours (H), and the number of doses after X. Additions like (4×) give the number of equal values in this list. Some entries were tested several times; the results are listed from low to high. Where survival is the endpoint, this PubChem deposit counts one and a half times the control or more as active, and values a quarter to a half above the control carry no call in these data; other NCI protocols may use other cut-offs.

Test system: CD2F1 mice, L1210 leukemia ip, survival T/C
Test: NCI In Vivo Anticancer Drug Screen. Data for tumor model L1210 Leukemia (intraperitoneal) in CD2F1 (CDF1) mice
Conditions: higher T/C = longer survival
Summary of the method: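 Mice carrying a transplanted tumor received test compound or vehicle alone. The value is the measurement in the treated group divided by that in the vehicle-treated control group.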

[1] = T/C endpoint: mean survival time, dose: 50.0 mg/kg/injection, schedule: Q01DX009 (ip), vehicle: saline with Tween-80
[2] = T/C endpoint: mean survival time, dose: 400.0 mg/kg/injection, schedule: Q04DX003 (ip), vehicle: saline with Tween-80

CCCCN(C)CCNc1cc(C)nc(/N=C(\N)Nc2ccc(Cl)c(Cl)c2)n1
survivor count (T/C endpoint: mean survival time, dose: 150.0 mg/kg/injection, schedule: Q01DX001 (ip), vehicle: other): 0 of 6
survivor count (T/C endpoint: mean survival time, dose: 300.0 mg/kg/injection, schedule: Q01DX001 (ip), vehicle: other): 0 of 6

N#C/C=C/C#N
survivor count (T/C endpoint: mean survival time, dose: 3.13 mg/kg/injection, schedule: Q01DX009 (ip), vehicle: saline with Tween-80): 0 of 6
survivor count (T/C endpoint: mean survival time, dose: 6.25 mg/kg/injection, schedule: Q01DX009 (ip), vehicle: saline with Tween-80): 0 of 6
survivor count (T/C endpoint: mean survival time, dose: 12.5 mg/kg/injection, schedule: Q01DX009 (ip), vehicle: saline with Tween-80): 0 of 6
survivor count (T/C endpoint: mean survival time, dose: 25.0 mg/kg/injection, schedule: Q01DX009 (ip), vehicle: saline with Tween-80): 3 of 6
survivor count [1]: 1 of 6
survivor count (T/C endpoint: mean survival time, dose: 100.0 mg/kg/injection, schedule: Q01DX009 (ip), vehicle: saline with Tween-80): 0 of 6

CCCCCCCCCCCCCCOS(=O)(=O)O
survivor count (T/C endpoint: mean survival time, dose: 150.0 mg/kg/injection, schedule: Q01DX009 (ip), vehicle: saline): 0 of 6

Cc1ccc(NN=O)nc1
T/C (T/C endpoint: median survival time, dose: 3.0 mg/kg/injection, schedule: Q01DX009 (ip), vehicle: water): 126 % of control
T/C (T/C endpoint: median survival time, dose: 6.0 mg/kg/injection, schedule: Q01DX009 (ip), vehicle: water): 125 and 131 % of control
T/C (T/C endpoint: median survival time, dose: 6.25 mg/kg/injection, schedule: Q01DX009 (ip), vehicle: water): 138 % of control
T/C (T/C endpoint: median survival time, dose: 12.0 mg/kg/injection, schedule: Q01DX009 (ip), vehicle: water): 143 % of control
T/C (T/C endpoint: median survival time, dose: 12.5 mg/kg/injection, schedule: Q01DX009 (ip), vehicle: water): 136 % of control
survivor count (T/C endpoint: median survival time, dose: 25.0 mg/kg/injection, schedule: Q01DX009 (ip), vehicle: water): 5 of 6
survivor count (T/C endpoint: median survival time, dose: 48.0 mg/kg/injection, schedule: Q01DX009 (ip), vehicle: water): 3 of 6

O=C1OC(c2ccccc2)(C2(c3ccccc3)OC(=O)c3ccccc32)c2ccccc21 (stereo unspecified)
survivor count (T/C endpoint: mean survival time, dose: 200.0 mg/kg/injection, schedule: Q04DX003 (ip), vehicle: saline with Tween-80): 6 of 6
survivor count [2]: 6 of 6

O=c1[nH]c(=O)n2ncc(Br)c2[nH]1
survivor count (T/C endpoint: median survival time, dose: 200.0 mg/kg/injection, schedule: Q01DX005 (ip), vehicle: saline): 1 of 6

Nc1ncnc2c1ncn2C1OC(CO)C2NP(=O)(N(CCCl)CCCl)OC21 (stereo unspecified)
survivor count (T/C endpoint: mean survival time, dose: 125.0 mg/kg/injection, schedule: Q01DX001 (ip), vehicle: distilled water + Tween-80): 2 of 6 and 3 of 6
survivor count (T/C endpoint: mean survival time, dose: 250.0 mg/kg/injection, schedule: Q01DX001 (ip), vehicle: distilled water + Tween-80): 0 of 6 (2×)
survivor count (T/C endpoint: mean survival time, dose: 500.0 mg/kg/injection, schedule: Q01DX001 (ip), vehicle: distilled water + Tween-80): 0 of 6 (2×)

Nc1nc(-c2cccc([N+](=O)[O-])c2)c(N=Nc2ccccc2)s1
survivor count (T/C endpoint: mean survival time, dose: 400.0 mg/kg/injection, schedule: Q01DX001 (ip), vehicle: saline with Tween-80): 3 of 6

NNC(=O)c1ccc(Cl)cc1Nc1cccc(Cl)c1
survivor count [2]: 0 of 6

CCN(CC)c1cc[c]([Hg][O]C(C)=O)cc1
survivor count (T/C endpoint: mean survival time, dose: 25.0 mg/kg/injection, schedule: Q04DX002 (ip), vehicle: saline with Tween-80): 0 of 3
survivor count (T/C endpoint: mean survival time, dose: 50.0 mg/kg/injection, schedule: Q04DX002 (ip), vehicle: saline with Tween-80): 0 of 3
survivor count (T/C endpoint: mean survival time, dose: 100.0 mg/kg/injection, schedule: Q04DX002 (ip), vehicle: saline with Tween-80): 0 of 3

CCOC(=O)Nc1cc2c(c(N)n1)N=C(c1ccc(Cl)cc1Cl)CN2
survivor count (T/C endpoint: median survival time, dose: 25.0 mg/kg/injection, schedule: Q01DX009 (ip), vehicle: saline with Tween-80): 6 of 6
survivor count (T/C endpoint: median survival time, dose: 50.0 mg/kg/injection, schedule: Q01DX009 (ip), vehicle: saline with Tween-80): 4 of 6

CSc1ccc2c(c1)C(N1CCN(C)CC1)Cc1ccccc1S2 (stereo unspecified)
survivor count [1]: 3 of 6

CCCC(O)C(N)CC (stereo unspecified)
survivor count (T/C endpoint: mean survival time, dose: 400.0 mg/kg/injection, schedule: Q01DX001 (ip), vehicle: saline): 1 of 3
